# Most values lie at the floor of the assay. Slopes are relative: functional sequences can read slightly below zero.
# Test system: Saccharomyces cerevisiae PS128 hsf1 delta, HSF1(1-493) fusion
# Assay: growth estimate (transactivation domain function in HSF1 fusion, heat-shock survival) (a.u. (slope of normalised read count over time)); higher = stronger growth at 37°C, i.e. more transactivation activity
# Details: library: random library
# Protocol: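 Random 60-nt DNA library encoding peptides of up to 20 aa, fused to the C-terminus of yeast HSF1 residues 1-493 (C-terminal TAD deleted) and expressed from the native HSF1 promoter on a CEN plasmid in hsf1-deleted S. cerevisiae PS128. Cells were selected at 37°C on -trp 5-FOA plates for 0, 2, 4, 6 and 8 days and amplicons were sequenced. Growth estimate is the slope of a robust linear fit of total-sum-normalised read counts (normalised to the first time point) over time, using at least 2 replicates. Sequences are classed functional (TAD activity) above a threshold of -0.13, set from stop-codon control sequences.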
row,Substance,growth estimate
1,VLISVGVKSKR,< -0.25
2,CWPSATTYSPGWAKGLTRRG,< -0.25
3,GFR,< -0.25
4,SFSARFIEV,< -0.25
5,PGRRQEQYCSTFFMCSVHDL,< -0.25
6,ESVKLTAGSRLDSKENRTVR,< -0.25
7,GQW,< -0.25
8,TAGGESSAWPLLDVIGFCVV,< -0.25
9,QSGMKIDS,-0.231
10,CGRNSRQPSTWSDRVAGDSP,< -0.25
11,YRAIWAVL,< -0.25
12,EGGRVGRGGMATGRGP,< -0.25
13,EVFSWHFQ,< -0.25
14,ILWSLETVPYSMH,-0.0809
15,HSDTELTGLECTSDTFSGLT,-0.245
16,FNLVRFKLKLEQQIGDKIPL,< -0.25
17,LPIGHVSDGRDKEPRRFGA,< -0.25
18,IPQYLHLIVPYRVRRSAAGV,< -0.25
19,RTGLSSAVKSRPIRCVLFRP,< -0.25
20,ISLYEACIYVRLRTWQLHPP,< -0.25
21,CGGSRDMALHLKEW,< -0.25
22,SVQPKPFPLRSPNICRFISA,< -0.25
23,RSSTTFVN,< -0.25
24,NKR,< -0.25

row,Substance,growth estimate
1,ILTLQSVLNVGMDGPRRTFR,< -0.25
2,RSAAGSMGG,< -0.25
3,LGGFFLVNMLFLRLNVVEHI,< -0.25
4,FIATSVYTVGSWSTVQVSLA,< -0.25
5,IPCRAKAPPSIHVVAAYWAV,< -0.25
6,RFTPDLVIATADFRLTM,< -0.25
7,RLILP,< -0.25
8,QSRHPKKV,< -0.25
9,GGCDPVHGVSGP,< -0.25
10,ISNKICCTYAPQSSAYRSEW,< -0.25
11,RQRSPRI,< -0.25
12,PDEQKTHPSTTRDEQFRFRL,< -0.25
13,FPGPLTSRGLTAAESNASDS,< -0.25
14,PVFNRSLTMRP,< -0.25
15,LVLSGGVWLIARTDLGDSGP,< -0.25
16,PSCIAVSSTLNRSLRIDGQV,< -0.25
17,APGTSFGVGILIYPTDMPSR,< -0.25
18,AFSSCAGLKGHAVCIIS,< -0.25
19,PSSEGPVSND,< -0.25
20,WEIKRYSVSTHVTEIAICGR,< -0.25
21,AFDSGMW,< -0.25
22,RKVAEKIPIILADHREHIAD,< -0.25
23,TTVGHRFAKEFN,< -0.25
24,LGRAENTAGRWISGEELVRV,< -0.25

# Rewritten with bars between the fields: entries from further up
row | Substance | growth estimate
5 | IPCRAKAPPSIHVVAAYWAV | < -0.25
15 | LVLSGGVWLIARTDLGDSGP | < -0.25

# More entries follow:

row,Substance,growth estimate
1,ARAHERRTTDLLWRCT,< -0.25
2,LVPVRQRPTISLKEEASTPL,< -0.25
3,QPEERCGILGHVLIGL,< -0.25
4,KLAFQVMG,< -0.25
5,CIAGHAECSVEKARPGRETP,-0.205
6,ILSRRPGVKSRAYIDSCSML,< -0.25
7,IRPGSATWNHKIPGIPLVPG,< -0.25
8,YNVS,< -0.25
9,TKSLSLTLV,< -0.25
10,GESATNISQWEPKHATRDRD,< -0.25
11,TCCKVTERVLRSVSIGAVPD,< -0.25
12,MEQPTNVIWKRAGLGLLHAI,< -0.25
13,SSLIACPSCDRFRLALDRTN,< -0.25
14,KGSQP,< -0.25
15,LEA,< -0.25
16,DLPPF,< -0.25
17,VYRHCKRAWPLSLGC,< -0.25
18,MFSLSVNSIQCPPYRTPSLA,< -0.25
19,LDGMTNTARILSF,< -0.25
20,QSLRRDASCTNGQGFFRVMV,< -0.25
21,SSGPQGLRGHVPRAVISCGM,< -0.25
22,SRSAMARARRPTGAQREYAT,< -0.25
23,EQVRYPIRNLRQYMPN,< -0.25
24,RPDKKVVEH,< -0.25

# Exported as tab-separated lines: entries from further up.
row	Substance	growth estimate
2	LVPVRQRPTISLKEEASTPL	< -0.25
3	QPEERCGILGHVLIGL	< -0.25

# (list continues)

row,Substance,growth estimate
1,KNIRLFERL,< -0.25
2,PRLINSMGGDYRIRPLRGRI,< -0.25
3,QHF,< -0.25
4,RPGDVVQMSVGHYA,< -0.25
5,SSLPLSGRSCWGTEEL,< -0.25
6,GCPRPNVCTGFL,< -0.25
7,VWCYEGPGCSRYPRSTRKAG,< -0.25
8,LRLIRTVSRPSRRIPGVGRF,< -0.25
9,YDKPEELP,< -0.25
10,FDAAAIIQSAKLSLGHGDSC,< -0.25
11,SSSLGES,< -0.25
12,CSYLRPVGLRPETHVRVQIS,< -0.25
13,GSMRAFPGTRLWRGSQLGRA,< -0.25
14,ISKGK,< -0.25
15,TDYEFVVAHQGCNRPFRNTH,< -0.25
16,VVGNVPESERGRLAIGTSVS,< -0.25
17,LCNVEYAEAAYLGNFLASNW,< -0.25
18,PLQGRG,< -0.25
19,TITWTPVKVSSLGTALDFIG,< -0.25
20,LYWVAEVKGPICE,< -0.25
21,SCVPVIVLSASDTGAIAYGS,-0.246
22,FYCLSREGKSS,< -0.25

# From the supplement of paper PMC5949888
